Reference: patent US20110171160A1 (Nektar Therapeutics, priority 2008, published 2011)

Tests used:
peptide synthesis [1] = conditions: conjugation step, analytical RP-HPLC, Waters Symmetry C18, detection at 280 nm; SDS-PAGE
peptide synthesis [2] = conditions: conjugation step

Substance: LPNYNWNSFGLRF-NH2 (Kisspeptin-13 mPEG-butyraldehyde 30K, mono-PEGylated; UniProt Q15726 109-121, looked up)
- final HPLC purity (peptide synthesis [1]): 100% pure

Substance: mono-[mPEG2-ButyrAldehyde-40K]-[Kisspeptin-54] (GTSLSPPPESSGSPQQPGLSAPHSRQIPAPQGAVLVQREKDLPNYNWNSFGLRF; Metastin mPEG2-butyraldehyde 40K, mono-PEGylated; UniProt Q15726 68-121, looked up)
- final HPLC purity (peptide synthesis [2]): 100%
